Reference: PubChem BioAssay AID1508600 (Functional Genomics Laboratory (NCATS/FGL), 2020)
The whole screen tested about 53,000 sequences, of which about 3,700 (7%) were called active.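 How the source made its calls: active means gene knockdowns whose robust z-score for IL-1 alpha signal is at least 2 or at most -2, so actives lie on both sides; inactive means the rest.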 This is one part of the list.

Assay: Components of the Cytosolic LPS Sensing Pathway: Gene Identification via Genome-wide siRNA Screen;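 further: robust z of the log signal after scaling to non-targeting control siRNA wells of the plate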
Conditions: RAW264.7 macrophages, IL-1a HTRF, actives lie on both sides, screened at 100 nM (by protocol), cells primed 5 h with Pam3CSK4 first
Procedure, shortened: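 Three distinct siRNAs per gene were tested singly at 100 nM in RAW264.7 macrophages. Following Pam3CSK4 priming and 24 hour LipidA transfection, IL-1a secretion was read by HTRF.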

| Sequence | z-score |
| --- | --- |
| GGUAGAAGCAGAGUUACCATT against Spata32 | inactive: -1.64 |
| CCUUGUUACUAUACUACACTT against Ppp1r2 | active: 2.59 |
| CGAUGAUCGGCUCAACAAGTT against Rplp2 | inactive: -0.401 |
| CCCGGCCAUCUACACUUAUTT against Gpr6 | inactive: 0.215 |
| GCAAGAGUGAGAAUAUGUCTT against Fadd | inactive: -0.366 |
| GCCUCCGUUUGAAAUAGAGTT against Zswim9 | inactive: 0.381 |
| GGAGACUGUCAGAAAGUUATT against Olfr1164 | inactive: -0.769 |
| CCUCUCUGAAUUGGUUAAUTT against Dipk1a | inactive: -1.34 |
| GGAGUUUCAUCCUACCAACTT against Nodal | inactive: -0.142 |
| GUCCCUCUCUUCUUGGUGUTT against Olfr74 | inactive: 0.26 |
| GGCUCCUCUACACAGGCAATT against Dusp26 | inactive: -1.39 |
| GAUCCGUUGGGAAAAGAACTT against Ssbp4 | inactive: -0.881 |
| GGUAACAAUCCCAGAAUCCTT against Gbp4 | inactive: 0.777 |
| GGUACUACACCUUUGAUGATT against Fibp | inactive: -0.497 |
| GCUACAGUGAUACAUUAGATT against Zfp69 | inactive: 1.74 |
| CCCGGAGAAAUACAUUAAGTT against Exoc7 | inactive: -0.0536 |
| GGACAAGGAAUUCUAACAGTT against Ankrd49 | inactive: -0.953 |
| GGACAUUAGGAUCAGAACCTT against Frg2f1 | inactive: 1.88 |
| GGAGACGAGGUCAUCAUCATT against Kyat1 | inactive: -0.652 |
| GGAGCAGAAGAAAUAUCUUTT against Olfr13 | inactive: 0.0471 |
| GGAAAUCCAGAAGAAAUUATT against Stmn1 | inactive: 0.81 |
| CGUUAUUUGCUGACAAUGUTT against Tas2r119 | inactive: -1.21 |
| GCACAUAUGUUUGUUAAGCTT against Rft1 | inactive: -0.423 |
| UGAUAAGUAGUCCCUCCUUTT against Fbxw16 | inactive: -0.982 |
| GGUGGACAGGAGAAAGGAATT against Npy6r | inactive: -0.578 |
| GGUGGUCCUUCCCUAAAGATT against Il11 | inactive: -0.747 |
| GGAGUACAGUGAUGACAAGTT against Ing5 | inactive: -0.083 |

Looked up one by one from the list above:

| Sequence | z-score |
| --- | --- |
| UGAUAAGUAGUCCCUCCUUTT against Fbxw16 | inactive: -0.982 |
| GGAGACGAGGUCAUCAUCATT against Kyat1 | inactive: -0.652 |

For convenience, some entries already given.

| Sequence | z-score |
| --- | --- |
| GGUGGACAGGAGAAAGGAATT against Npy6r | inactive: -0.578 |
| GGUGGUCCUUCCCUAAAGATT against Il11 | inactive: -0.747 |

(next part)

| Sequence | z-score |
| --- | --- |
| GGAUAAAUCUCACUUCACATT against Etf1 | inactive: -0.477 |
| GCCAAUAACUUCACUGAUATT against Pi15 | inactive: -1.53 |
| GCUCCUAAUGAAAUGGUUUTT against Kif2a | inactive: 1.41 |
| GGAAGUUAAAACCCUACUUTT against Trh | inactive: -0.43 |
| GGGAAUAUGACUGAAUAUATT against Ss18 | inactive: -1.05 |
| ACCUUUUCAAAUCUGUGCGTT against Uts2b | inactive: -0.928 |
| GGAGGAGGCUGACUACUUUTT against Kctd18 | inactive: 0.75 |
| GGGCAAUACUAAAUAAAAGTT against Gid4 | inactive: 1.33 |
| GGUUCUGAAAUGCAUGGAGTT against Rnf6 | inactive: 1.76 |
| GGUGGAUGAUAAUGUUCUUTT against Gcnt3 | inactive: 0.911 |
| GGAGUUUAGUGACGAUGUGTT against Zfp46 | inactive: -1.48 |
| CCAGGUUCUGUUGAGAAUCTT against Irak1bp1 | inactive: -0.403 |
| GGAAAUCCACAGGAAAGUGTT against G3bp1 | inactive: 0.754 |
| GGUAAAAUGAUCCUUAGAATT against Pcdh15 | inactive: 0.145 |
| CCAUCCAUAUGAACUAUGATT against Slc30a4 | inactive: -1.5 |
| GGUUUACAGCAUCAUUAAATT against Shmt1 | inactive: 0.345 |
| CCUCGCAUAAUUAAUUGUUTT against Prdm8 | inactive: -0.242 |
| GCACCAAAACAGGAAUUACTT against Fibp | inactive: 1.23 |
| GGACACAUUCAUCUUAACATT against Twistnb | inactive: -1.12 |
| GGGUCUUCCUUUCCUAUGATT against Msi2 | inactive: -1.97 |
| GGUUUUUCAGCUUUGGAACTT against Decr1 | inactive: -0.822 |
| CCCGGACCUUGAAUAAGCATT against Piwil4 | inactive: -1.06 |
| GGCCAAGGAUAUUCAGUAUTT against Timp4 | inactive: -0.156 |
| GCCAGACUGGAGGUAAAAUTT against Serpinb10 | active: -2.24 |
| GGUUGCUAUCAACCUUUAATT against A530016L24Rik | inactive: 0.62 |
| GGUCAAAACAUGUCCAAACTT against Vmn1r63 | inactive: 1.27 |
| GGCUGACAAGGAGAGCUUCTT against Pim3 | inactive: -0.112 |
